Where “and” joins values, the source holds several entries; their conditions need not be identical. Equal entries are not always repeated.
What was measured:
MLP2 = test: ANS displacement assay; format: binding, Papaver somniferum; conditions: ANS displacement dose-response fit
Source text: (§1) Eluates were store separately on ice.
(§2) Displacement of ANS is associated with reduced fluorescence.

PR10-12 [1] = test: ANS displacement assay; format: binding, Papaver somniferum; conditions: ANS displacement dose-response fit
Source text: as §1, §2

PR10-4 = test: ANS displacement assay; format: binding, Papaver somniferum; conditions: ANS displacement dose-response fit
Source text: as §1, §2

PR10-12 [2] = test: Isothermal titration calorimetry; format: binding, Papaver somniferum; conditions: ITC, PBS pH 7.4, 25 °C
Procedure: ITC experiments were conducted using a Microcal VP instrument (Malvern Pananalytical, Malvern, UK). Recombinant MLP/PR10 protein preparation involving production in Escherichia coli followed by cobalt-affinity chromatography was optimized to yield relatively high purity in a single step as determined by SDS-PAGE and colloidal Coomassie blue silver staining. The less than 48 h decrease in atmospheric oxygen exposure generated high-quality proteins with reduced precipitate. […] Eluates were twice dialysed to equilibrium (i.e., 10–12 h at 4 °C) against a 1000-fold (2–4 L) volume of PBS, pH 7.4 (25 mM sodium phosphate, 50 mM NaCl) or CBS, pH 5.5, resulting in a theoretical million-fold dilution of undesired small molecules (e.g., <0.2 µM imidazole). Dialysis was carried out in boiled Spectra/Por 1 6–8 kDa MWCO 0.32 ml/cm (Spectrum Labs, USA) tubing thoroughly washed with either buffer before use. The second 1000-fold volume of dialysis buffer was filtered and degassed using a reusable bottle-top filtration apparatus (Nalgene, USA) with disposable […] cellulose filters (VWR, Canada) prior to storage at 4 °C. Ligands were dissolved in the filtered dialysis buffer at 21 °C for approximately one hour, and any insoluble material was removed by repeated centrifugation at 21,000 × g for 10 min. No change in pH occurred following substrate addition. Prior to ITC, which was initiated immediately following dialysis, the protein solutions were centrifuged at 17,000 × g and 4 °C for 30 min. Any precipitate was separated from the remaining soluble protein fraction which was quantified by absorption at A280nm and diluted with filtered dialysis buffer immediately before use.
Thermograms were recorded at 25 °C, with a reference power of 10 (dpu/sec) and monitoring of 30 injections of 9 µl BIA ligand solutions into a sample cell containing 1.4 ml of an MLP/PR10 protein solution, with 300 seconds between injections. Protein concentrations varied from 10 to 150 µM to achieve an optimal C value and curve shape valid for parameter calculation. […] To ensure that we report only the heat of reaction for each interaction, independent titrations of ligand into buffer, and buffer into protein solutions, were used to calculate and then subtract heats of dilution. After subtraction, binding isotherms were analyzed in MicroCal Origin 7 (MicroCal, USA) by fitting a single-site binding model using non-linear least squares regression analysis repeated until convergence. […] Each ITC experiment was repeated 2 to 4 times.

[3] = Sucrose density-gradient fractionation of latex, relative abundance of BIAs in gradient fractions; design: species or system Papaver somniferum
[4] = test system: engineered Saccharomyces cerevisiae CEN.PK strain (NISO not included); test: Morphinan alkaloid accumulation in opiate-producing yeast strain fed salutaridine; format: cell-based; conditions: replicates 1-4

COc1ccc2c3c1O[C@H]1[C@@H](O)C=C[C@H]4[C@@H](C2)N(C)CC[C@@]341 [Codeine, codeine]
Hill Slope (MLP2): -0.81 ± 0.16 | Hill Slope (PR10-12 [1]): -1.38 ± 0.58 | Hill Slope (PR10-4): -0.59 ± 0.42 | ΔH (PR10-12 [2]): 6263 ± 582.6 cal/mol | ΔS (PR10-12 [2]): 38.6 cal/mol/˚K | N (PR10-12 [2]; single-site model): 0.938 ± 0.0615 | Alkaloid concentration in sucrose density-gradient fraction ([3]; Cultivar 40, fraction 1): 0.365 mM | Alkaloid concentration in sucrose density-gradient fraction ([3]; Cultivar 40, fraction 2): 0.265 mM | Alkaloid concentration in sucrose density-gradient fraction ([3]; Cultivar 40, fraction 3): 0.090 mM | Alkaloid concentration in sucrose density-gradient fraction ([3]; Cultivar 40, fraction 4): 0.043 mM | Alkaloid concentration in sucrose density-gradient fraction ([3]; Cultivar 40, fraction 5): 0.026 mM | Alkaloid concentration in sucrose density-gradient fraction ([3]; Cultivar 40, fraction 6): 0.017 mM | Alkaloid concentration in sucrose density-gradient fraction ([3]; Cultivar 40, fraction 7): 0.013 mM | Alkaloid concentration in sucrose density-gradient fraction ([3]; Cultivar 40, fraction 8): 0.013 mM | Alkaloid concentration in sucrose density-gradient fraction ([3]; Cultivar 40, fraction 9): 0.015 mM | Alkaloid concentration in sucrose density-gradient fraction ([3]; Cultivar 40, fraction 10): 0.015 mM | Alkaloid concentration in sucrose density-gradient fraction ([3]; Cultivar 40, fraction 11): 0.017 mM | Alkaloid concentration in sucrose density-gradient fraction ([3]; Cultivar 40, fraction 12): 0.018 mM | Alkaloid concentration in sucrose density-gradient fraction ([3]; Cultivar 40, fraction 13): 0.028 mM | Alkaloid concentration in sucrose density-gradient fraction ([3]; Cultivar 40, fraction 14): 0.034 mM | Alkaloid concentration in sucrose density-gradient fraction ([3]; Cultivar 40, fraction 15): 0.032 mM | Alkaloid concentration in sucrose density-gradient fraction ([3]; Cultivar 40, fraction 16): 0.035 mM | Alkaloid concentration in sucrose density-gradient fraction ([3]; Cultivar 40, fraction 17): 0.029 mM | Alkaloid concentration in sucrose density-gradient fraction ([3]; Cultivar 40, fraction 18): 0.030 mM | Alkaloid concentration in sucrose density-gradient fraction ([3]; Cultivar 40, fraction 19): 0.036 mM | Alkaloid concentration in sucrose density-gradient fraction ([3]; Cultivar 40, fraction 20): 0.065 mM | Alkaloid concentration in sucrose density-gradient fraction ([3]; Cultivar 40, fraction 21): 0.065 mM | Alkaloid concentration in sucrose density-gradient fraction ([3]; Cultivar 40, fraction 22): 0.058 mM | Alkaloid concentration in sucrose density-gradient fraction ([3]; Cultivar Roxanne, fraction 1): 0.182 mM | Alkaloid concentration in sucrose density-gradient fraction ([3]; Cultivar Roxanne, fraction 2): 0.081 mM | Alkaloid concentration in sucrose density-gradient fraction ([3]; Cultivar Roxanne, fraction 3): 0.023 mM | Alkaloid concentration in sucrose density-gradient fraction ([3]; Cultivar Roxanne, fraction 4): 0.009 mM | Alkaloid concentration in sucrose density-gradient fraction ([3]; Cultivar Roxanne, fraction 5): 0.011 mM | Alkaloid concentration in sucrose density-gradient fraction ([3]; Cultivar Roxanne, fraction 6): 0.007 mM | Alkaloid concentration in sucrose density-gradient fraction ([3]; Cultivar Roxanne, fraction 7): 0.00548 mM | Alkaloid concentration in sucrose density-gradient fraction ([3]; Cultivar Roxanne, fraction 8): 0.00529 mM | Alkaloid concentration in sucrose density-gradient fraction ([3]; Cultivar Roxanne, fraction 9): 0.00529 mM | Alkaloid concentration in sucrose density-gradient fraction ([3]; Cultivar Roxanne, fraction 10): 0.00476 mM | Alkaloid concentration in sucrose density-gradient fraction ([3]; Cultivar Roxanne, fraction 11): 0.005 mM | Alkaloid concentration in sucrose density-gradient fraction ([3]; Cultivar Roxanne, fraction 12): 0.006 mM | Alkaloid concentration in sucrose density-gradient fraction ([3]; Cultivar Roxanne, fraction 13): 0.00653 mM | Alkaloid concentration in sucrose density-gradient fraction ([3]; Cultivar Roxanne, fraction 14): 0.011 mM | Alkaloid concentration in sucrose density-gradient fraction ([3]; Cultivar Roxanne, fraction 15): 0.011 mM | Alkaloid concentration in sucrose density-gradient fraction ([3]; Cultivar Roxanne, fraction 16): 0.017 mM | Alkaloid concentration in sucrose density-gradient fraction ([3]; Cultivar Roxanne, fraction 17): 0.017 mM | Alkaloid concentration in sucrose density-gradient fraction ([3]; Cultivar Roxanne, fraction 18): 0.017 mM | Alkaloid concentration in sucrose density-gradient fraction ([3]; Cultivar Roxanne, fraction 19): 0.015 mM | Alkaloid concentration in sucrose density-gradient fraction ([3]; Cultivar Roxanne, fraction 20): 0.020 mM | Alkaloid concentration in sucrose density-gradient fraction ([3]; Cultivar Roxanne, fraction 21): 0.011 mM | Alkaloid concentration in sucrose density-gradient fraction ([3]; Cultivar Roxanne, fraction 22): 0.026 mM | Alkaloid accumulation in yeast ([4]; 2 h salutaridine feeding, EV strain): 0 ug/ul/OD | Alkaloid accumulation in yeast ([4]; 2 h salutaridine feeding, MLP2 strain): 0 ug/ul/OD | Alkaloid accumulation in yeast ([4]; 2 h salutaridine feeding, MLP15 strain): 0 ug/ul/OD | Alkaloid accumulation in yeast ([4]; 2 h salutaridine feeding, NISO strain): 107.675 ug/ul/OD and 157.001 ug/ul/OD and 148.548 ug/ul/OD and 122.82 ug/ul/OD | Alkaloid accumulation in yeast ([4]; 2 h salutaridine feeding, PR10-4 strain): 0 ug/ul/OD | Alkaloid accumulation in yeast ([4]; 2 h salutaridine feeding, PR10-10 strain): 0 ug/ul/OD | Alkaloid accumulation in yeast ([4]; 2 h salutaridine feeding, PR10-12 strain): 0 ug/ul/OD | Alkaloid accumulation in yeast ([4]; 6 h salutaridine feeding, EV strain): 32.3254 ug/ul/OD and 28.0153 ug/ul/OD and 39.3344 ug/ul/OD and 0 ug/ul/OD | Alkaloid accumulation in yeast ([4]; 6 h salutaridine feeding, MLP2 strain): 39.2619 ug/ul/OD and 30.1101 ug/ul/OD and 39.1599 ug/ul/OD and 45.9074 ug/ul/OD | Alkaloid accumulation in yeast ([4]; 6 h salutaridine feeding, MLP15 strain): 42.4173 ug/ul/OD and 11.4693 ug/ul/OD and 27.9874 ug/ul/OD and 37.7122 ug/ul/OD | Alkaloid accumulation in yeast ([4]; 6 h salutaridine feeding, NISO strain): 377.624 ug/ul/OD and 475.323 ug/ul/OD and 383.561 ug/ul/OD and 380.034 ug/ul/OD | Alkaloid accumulation in yeast ([4]; 6 h salutaridine feeding, PR10-4 strain): 34.936 ug/ul/OD and 44.6481 ug/ul/OD and 35.9219 ug/ul/OD and 33.4971 ug/ul/OD | Alkaloid accumulation in yeast ([4]; 6 h salutaridine feeding, PR10-10 strain): 34.3086 ug/ul/OD and 44.5164 ug/ul/OD and 37.3049 ug/ul/OD and 39.3297 ug/ul/OD | Alkaloid accumulation in yeast ([4]; 6 h salutaridine feeding, PR10-12 strain): 30.1443 ug/ul/OD and 6.921 ug/ul/OD and 32.3611 ug/ul/OD and 0 ug/ul/OD

Source: publication PMC9646721, “Alkaloid binding to opium poppy major latex proteins triggers structural modification and functional aggregation” (Nature Communications, 2022)
